Our source for the binding values is patent US20030152514A1.

By UniProt entry, the sequences of proteins in these tests, tags left out. Residues count along the entry.
UniProt P43121, residues 24-559: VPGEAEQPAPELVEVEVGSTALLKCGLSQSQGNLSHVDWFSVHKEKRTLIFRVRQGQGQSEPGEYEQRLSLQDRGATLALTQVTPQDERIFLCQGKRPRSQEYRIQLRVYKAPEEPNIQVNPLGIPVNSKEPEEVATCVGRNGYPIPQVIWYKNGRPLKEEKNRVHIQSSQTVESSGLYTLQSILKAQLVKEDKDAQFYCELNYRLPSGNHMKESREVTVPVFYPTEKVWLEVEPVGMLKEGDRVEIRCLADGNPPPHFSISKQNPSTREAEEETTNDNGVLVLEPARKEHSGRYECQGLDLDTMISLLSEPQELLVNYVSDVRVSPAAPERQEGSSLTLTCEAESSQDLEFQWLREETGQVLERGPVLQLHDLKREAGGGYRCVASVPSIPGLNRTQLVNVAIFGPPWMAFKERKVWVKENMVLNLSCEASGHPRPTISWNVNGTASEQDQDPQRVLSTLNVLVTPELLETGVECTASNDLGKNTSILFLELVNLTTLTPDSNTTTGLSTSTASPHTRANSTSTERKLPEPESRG

The target of the test is MUC18 antigen coated on ELISA plates (hybridoma screen) (human) (UniProt P43121). Briefly: antigen-specific ELISA of hybridoma supernatants on antigen coated plates. A general note: An ELISA detects its analyte on a solid surface through an enzyme-linked reagent.

Substitutions are numbered along the chain they refer to. These are yes or no findings as the source states them, for the method shown. Some binding calls cover weakened binding; strength is not graded here.

B1: anti-MUC18 antibody c3.45 (antibody, human IgG2, V domains shown)
VH: QVQLVQSGAEVKKPGASVKVSCKASGYTFFSYGFSWVRQAPGQGLEWLGWISAYNGNTNYAQKLQGRVTMTTDTSTSTAYMELRSLRSDDTAVYYCARETKVRGVHYYGMDVWGQGTTVTVSS
VL: DIVMTQSPDSLAVSLGERATIICKSSQSILYSSNNKNYLGWYQQKPGQPPKLLIYWASTRESGVPARFSGSGSGTDFTLTINSLQAEDVAVYYCQQYYSTPRSFGQGTMVEIK
As for B1, the binding result is “binds”.

B2: anti-MUC18 antibody c3.10 (antibody, human IgG2, V domains shown)
VH: QVQLQESGPGLVKPSETLSLTCTVSGGSISSYYWSWIRQPPGKGLEWIGYIYYTWTTNYNPSLKSRVTISVDTSKNQFSLRLSSVTAADTALYYCARDQGQWLLPDAFDIWGQGTMVTVSS
VL: DIQMTQSPSSLSASVGDRVTITCRASQSISNYLNWYQQKPGKAPKLLIYGASSLQSGVPSRFSGSGSGTDFTLTISSLQPEDFATYYCRQSYSTPPECSFGQGTKLEIK
Consider B2, for which the binding result was “binds”.

B3: anti-MUC18 antibody c3.27 (antibody, human IgG2, V domains shown)
VH: B2 VH with T57S, L92V
VL: DIQMTQSPSSLSASVGDRVTITCRASQGIRNDLGWYQQKPGKAPKRLIYAASSLQSGVPSRFSGSGSGTEFTLTISSLQPEDFATYYCLQHNSYPWTFGQGTKVEIK
On to B3, for which the binding entry was “binds”.

B4: anti-MUC18 antibody c3.22 (antibody, human IgG2, V domains shown)
VH: QVQLQESGPGLVKPSQTLSLTCTVSGGSISSGGYYWTWIRQHPGKGLEWIGFIYYSGSTYYNPSLKSRVTISVDTSKNQFSLKLSSVTAADTAVYYCAREGDGFDYWGQGTLVTVSS
VL: B3 VL with W96L, Q100G
As to B4, the binding result is “binds”.

B5: anti-MUC18 antibody c6.2 (antibody, human IgG2, V domains shown)
VH: QVQLQESGPGLVKPSETLSLTCTVSGGSISTYYWSWIRQPPGKGLEWIGYIYYTGNTYYNPSLKSRVTVSVDTSKNQFSLKLNSVTAADTAVYYCARDPGQWLVPDAFDIWGQGTMVSVSS
VL: DIVMTQSPLSLPVIPGEPASISCRSSQSLLQSNGNNYLDWYLQKPGQSPQLLIYLGSNRASGVPDRFSGSGSGTDFTLKISRVEADDVGIYYCMQALQIPLTFGGGTKVEIK
In the case of B5, the binding result is recorded as “binds”.

B6: anti-MUC18 antibody c6.9 (also independently cloned as c6.12) (antibody, human IgG2, V domains shown)
VH: QVQLEQSGPGLVKPSETLSLTCTVSGGSISSGTYHWSWIRQHPGRGLEWIGYIYYSGSTYHNPSLKSRITISVDTSKNQFSLKLSSVTAADTAVYYCARGGDGYRYWGQGTLVTVSS
VL: EIVMTQSPATLSVSPGERATLSCRASQSISNNFAWYQQKPGQAPRLLIFGASTRATGIPARFSGSGSGTEFTLTISSLQSEDFAVYYCQQYNNWPRTFGQGTKVEIK
For the molecule B6, the binding entry is listed as “binds”.
